Reference: the supplement of paper PMC10849652
This is one part of the list.

Sequences of proteins named here, by UniProt entry; tags and fusion partners are left off. A change or cut given only in a name is not applied to a line headed by its entry.
UniProt P23921: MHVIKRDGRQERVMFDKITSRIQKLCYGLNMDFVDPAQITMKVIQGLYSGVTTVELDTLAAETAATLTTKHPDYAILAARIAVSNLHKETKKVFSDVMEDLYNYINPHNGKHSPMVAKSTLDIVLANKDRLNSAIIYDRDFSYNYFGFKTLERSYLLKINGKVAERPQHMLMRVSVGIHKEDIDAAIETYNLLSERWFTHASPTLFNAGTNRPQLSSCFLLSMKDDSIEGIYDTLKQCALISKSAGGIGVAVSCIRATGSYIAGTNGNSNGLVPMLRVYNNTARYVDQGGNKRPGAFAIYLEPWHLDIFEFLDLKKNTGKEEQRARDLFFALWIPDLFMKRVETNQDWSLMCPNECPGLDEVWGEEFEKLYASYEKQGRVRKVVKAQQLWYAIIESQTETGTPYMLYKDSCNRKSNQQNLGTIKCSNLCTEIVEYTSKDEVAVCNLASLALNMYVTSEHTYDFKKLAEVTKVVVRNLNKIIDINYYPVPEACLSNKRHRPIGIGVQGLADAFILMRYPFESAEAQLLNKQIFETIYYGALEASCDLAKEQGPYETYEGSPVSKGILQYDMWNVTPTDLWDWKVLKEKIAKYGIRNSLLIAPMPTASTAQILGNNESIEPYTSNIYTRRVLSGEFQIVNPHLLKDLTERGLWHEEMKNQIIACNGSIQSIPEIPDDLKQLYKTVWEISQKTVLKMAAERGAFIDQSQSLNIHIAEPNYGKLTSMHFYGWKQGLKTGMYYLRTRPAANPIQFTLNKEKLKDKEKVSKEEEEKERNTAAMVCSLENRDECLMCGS
UniProt Q9Y224: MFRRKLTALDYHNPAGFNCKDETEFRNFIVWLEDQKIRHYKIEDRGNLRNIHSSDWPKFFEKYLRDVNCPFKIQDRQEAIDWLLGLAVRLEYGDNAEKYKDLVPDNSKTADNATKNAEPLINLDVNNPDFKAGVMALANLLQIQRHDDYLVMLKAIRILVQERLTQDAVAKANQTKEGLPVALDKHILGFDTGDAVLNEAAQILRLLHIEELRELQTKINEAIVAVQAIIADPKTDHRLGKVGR
UniProt Q9BUL9: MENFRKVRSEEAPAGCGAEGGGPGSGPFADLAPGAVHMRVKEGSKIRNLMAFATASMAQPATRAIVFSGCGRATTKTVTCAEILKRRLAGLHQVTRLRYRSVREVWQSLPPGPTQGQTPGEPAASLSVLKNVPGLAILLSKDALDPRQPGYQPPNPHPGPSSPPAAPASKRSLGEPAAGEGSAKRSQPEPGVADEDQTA
UniProt P31350, whole entry, looked up: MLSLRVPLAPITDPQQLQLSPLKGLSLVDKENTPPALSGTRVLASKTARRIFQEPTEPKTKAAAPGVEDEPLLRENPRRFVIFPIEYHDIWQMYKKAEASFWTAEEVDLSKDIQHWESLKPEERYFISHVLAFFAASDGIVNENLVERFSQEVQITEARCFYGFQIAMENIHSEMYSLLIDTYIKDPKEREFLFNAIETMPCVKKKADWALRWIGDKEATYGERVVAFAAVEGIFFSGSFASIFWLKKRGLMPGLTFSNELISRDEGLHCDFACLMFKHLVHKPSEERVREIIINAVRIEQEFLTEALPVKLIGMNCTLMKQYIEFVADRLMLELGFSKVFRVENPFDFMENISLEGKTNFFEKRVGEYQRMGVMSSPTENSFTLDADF
UniProt Q9H633: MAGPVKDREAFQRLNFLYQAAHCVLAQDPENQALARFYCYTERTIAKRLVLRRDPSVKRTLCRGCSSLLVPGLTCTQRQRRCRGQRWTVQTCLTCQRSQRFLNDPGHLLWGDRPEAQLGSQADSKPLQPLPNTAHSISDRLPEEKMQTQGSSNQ

How the values were obtained:
Assay in all cases: log2 fold change, soluble protein after heating vs DMSO (PISA); higher = thermal stabilisation; K562 lysate, 10 uM; active = over 0.2 and 3.5 SD of the protein, either way, in both replicates (recomputed)
ibrutinib = compound: C=CC(=O)N1CCC[C@@H](n2nc(-c3ccc(Oc4ccccc4)cc3)c3c(N)ncnc32)C1 [ibrutinib]
How it was run: (§1)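 Quantification was by TMTpro 16plex LC-MS/MS with equalised channel sums, applied to the supernatant after 21,000xg for 90 min. Samples were crude K562 extract at 1 mg/mL protein in PBS pH 7.4 with 1 mM MgCl2, treated with 10 μM compound for 30 min, heated for 3 min across 48°C-58°C, pooled and brought to 0.5% NP-40 at 4°C. Values are log-two fold changes in thermal stability relative to solvent controls, from duplicates.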

[1] = compound: CC(=O)c1cnc2ccc(-c3cc(Cl)c(O)c(Cl)c3)nc2c1N[C@H]1CC[C@H](CN(C)C)CC1
How it was run: as §1

ralimetinib = compound: CC(C)(C)Cn1c(N)nc2ccc(-c3[nH]c(C(C)(C)C)nc3-c3ccc(F)cc3)nc21 [ralimetinib]
How it was run: as §1

[2] = compound: CC(C)(O)CC(=O)NCCn1ccc2ncnc(Nc3ccc(Oc4cccc(C(F)(F)F)c4)c(Cl)c3)c21
How it was run: as §1

[3] = compound: CC(C)C1=C2N=C(C=C(N2N=C1)NCC3=CC=CC=C3)NCCCCCCN
How it was run: as §1

[4] = compound: CC1=C(C(CC(=O)N1)C2=CC=C(C=C2)C(F)(F)F)C(=O)NC3=C(C=C4C(=C3)C=NN4)F
How it was run: as §1

[5] = compound: CC1=C(C2=C(C=C1)C(=O)C3=CC=CC=C3N2CCCN)C
How it was run: as §1

[6] = compound: CC1=C(C=C(C=C1)NC(=O)C2=CC(=CC=C2)C(C)(C)C#N)NC3=CC4=C(C=C3)N=CN(C4=O)C
How it was run: as §1

[7] = compound: CC1=C(C=C(C=C1)NC(=O)C2=CC(=CC=C2)N(C)C)NC(=O)C3=CC=C(C=C3)O
How it was run: as §1

[8] = compound: CC1=CC=C(C=C1)SC2=C3C=C(SC3=CN=C2)C(=O)N
How it was run: as §1

vemurafenib = compound: CCCS(=O)(=O)Nc1ccc(F)c(C(=O)c2c[nH]c3ncc(-c4ccc(Cl)cc4)cc23)c1F [vemurafenib]
How it was run: as §1

[9] = compound: CCCS(=O)(=O)Nc1ccc(F)c(C(=O)c2c[nH]c3ncc(Cl)cc23)c1F
How it was run: as §1

barasertib = compound: CCN(CCCOc1ccc2c(Nc3cc(CC(=O)Nc4cccc(F)c4)[nH]n3)ncnc2c1)CCOP(=O)(O)O [barasertib]
How it was run: as §1

[10] = compound: CC[C@@H]1C(=O)N(C)c2cnc(Nc3ccc(C(=O)NC4CCN(C)CC4)cc3OC)nc2N1C1CCCC1
How it was run: as §1

volasertib = compound: CC[C@@H]1C(=O)N(C)c2cnc(Nc3ccc(C(=O)N[C@H]4CC[C@H](N5CCN(CC6CC6)CC5)CC4)cc3OC)nc2N1C(C)C [volasertib]
How it was run: as §1

[11] = compound: CCn1c(C(=O)N(C2CC2)C2CC2)cc2c3c(ncn3C)c(Nc3cc(C)n(C)n3)nc21
How it was run: as §1

[12] = compound: CCn1cc(-c2ccnc3[nH]c(-c4cccc(CN(C)C)c4)cc23)c(-c2ccc(NC(=O)N(C)C)cc2)n1
How it was run: as §1

[13] = compound: CN1CCC(CNc2ccc3ncc(-c4cccc(OC(F)(F)F)c4)n3n2)CC1
How it was run: as §1

saracatinib = compound: CN1CCN(CCOc2cc(OC3CCOCC3)c3c(Nc4c(Cl)ccc5c4OCO5)ncnc3c2)CC1 [saracatinib]
How it was run: as §1

sotrastaurin = compound: CN1CCN(c2nc(C3=C(c4c[nH]c5ccccc45)C(=O)NC3=O)c3ccccc3n2)CC1 [sotrastaurin]
How it was run: as §1

Row | Target | log2 fold change (ibrutinib) | log2 fold change [1] | log2 fold change (ralimetinib) | log2 fold change [2] | log2 fold change [3] | log2 fold change [4] | log2 fold change [5] | log2 fold change [6] | log2 fold change [7] | log2 fold change [8] | log2 fold change (vemurafenib) | log2 fold change [9] | log2 fold change (barasertib) | log2 fold change [10] | log2 fold change (volasertib) | log2 fold change [11] | log2 fold change [12] | log2 fold change [13] | log2 fold change (saracatinib) | log2 fold change (sotrastaurin)
1 | RPS27 (UniProt P42677) | inactive: -0.011 | inactive: 0.013 | inactive: 0.088 | inactive: -0.011 | inactive: 0.031 | inactive: -0.007 | inactive: -0.108 | inactive: 0.011 | inactive: -0.08 | inactive: 0.05 | inactive: -0.005 | inactive: 0.005 | inactive: -0.016 | inactive: -0.001 | inactive: -0.016 | inactive: -0.1 | inactive: -0.019 | inactive: 0.045 | inactive: 0.011 | inactive: -0.073
2 | RPL8 (UniProt P62917) | inactive: 0.031 | inactive: 0.007 | inactive: 0.01 | inactive: -0.002 | inactive: -0.008 | inactive: 0.012 | inactive: -0.045 | inactive: -0.076 | inactive: -0.013 | inactive: 0.011 | inactive: -0.055 | inactive: 0.013 | inactive: -0.042 | inactive: -0.09 | inactive: -0.012 | inactive: 0.021 | inactive: 0.208 | inactive: -0.014 | inactive: -0.009 | inactive: -0.038
3 | RPS21 (UniProt P63220) | inactive: -0.002 | inactive: 0.018 | inactive: 0.015 | inactive: 0.012 | inactive: -0.025 | inactive: -0.075 | inactive: 0.053 | inactive: -0.021 | inactive: -0.013 | inactive: 0.001 | inactive: -0.02 | inactive: -0.026 | inactive: 0.021 | inactive: -0.039 | inactive: 0.025 | inactive: 0.015 | inactive: -0.036 | inactive: 0.009 | inactive: 0.005 | inactive: -0.033
4 | RRM1 (UniProt P23921) | inactive: 0.025 | inactive: 0 | inactive: 0.005 | inactive: -0.01 | inactive: 0.022 | inactive: 0 | inactive: -0.033 | inactive: -0.009 | inactive: 0.024 | inactive: 0.016 | inactive: 0.023 | inactive: 0.018 | inactive: 0.011 | inactive: -0.065 | inactive: -0.063 | inactive: 0.003 | inactive: -0.045 | inactive: -0.031 | inactive: -0.02 | inactive: -0.016
5 | RTRAF (UniProt Q9Y224) | inactive: 0.144 | inactive: 0.033 | inactive: -0.002 | inactive: 0.029 | inactive: 0 | inactive: -0.018 | inactive: 0.011 | inactive: -0.019 | inactive: -0.025 | inactive: 0.005 | inactive: -0.032 | inactive: -0.012 | inactive: 0.05 | inactive: -0.05 | inactive: -0.015 | inactive: 0.036 | inactive: 0.019 | inactive: 0.02 | inactive: -0.017 | inactive: 0.018
6 | RPS28 (UniProt P62857) | inactive: -0.013 | inactive: 0.006 | inactive: 0.007 | inactive: -0.022 | inactive: -0.002 | inactive: -0.016 | inactive: 0.015 | inactive: -0.045 | inactive: 0.003 | inactive: -0.065 | inactive: -0.018 | inactive: -0.044 | inactive: -0.01 | inactive: 0.004 | inactive: -0.018 | inactive: 0.039 | inactive: -0.003 | inactive: 0.064 | inactive: -0.004 | inactive: 0.051
7 | RPS26P11 (UniProt Q5JNZ5) | inactive: -0.037 | inactive: 0.004 | inactive: 0.008 | inactive: -0.034 | inactive: -0.019 | inactive: -0.013 | inactive: -0.034 | inactive: 0.024 | inactive: 0.025 | inactive: 0.016 | inactive: 0.012 | inactive: -0.01 | inactive: -0.03 | inactive: 0.041 | inactive: 0.017 | inactive: 0.02 | active: -0.688 | inactive: 0.224 | inactive: 0.009 | inactive: 0.05
8 | RPP25 (UniProt Q9BUL9) | inactive: 0.022 | inactive: -0.036 | inactive: 0.039 | inactive: -0.063 | inactive: 0 | inactive: 0.027 | inactive: 0.001 | inactive: -0.033 | inactive: 0.037 | inactive: -0.028 | inactive: -0.077 | inactive: -0.057 | inactive: 0.165 | inactive: 0.085 | inactive: 0.028 | inactive: 0.035 | inactive: -0.036 | inactive: 0.035 | inactive: 0.004 | inactive: -0.025
9 | RRM2 isoform 2 (UniProt P31350) | inactive: 0.065 | inactive: 0.004 | inactive: 0.003 | inactive: 0.038 | inactive: -0.015 | inactive: -0.008 | inactive: 0.022 | inactive: 0.035 | inactive: -0.062 | inactive: -0.018 | inactive: -0.016 | inactive: -0.001 | inactive: 0.005 | inactive: 0.055 | inactive: 0.05 | inactive: -0.02 | inactive: 0.01 | inactive: 0.031 | inactive: -0.009 | inactive: -0.001
10 | RPS15 (UniProt P62841) | inactive: 0.033 | inactive: -0.013 | inactive: 0.065 | inactive: -0.064 | inactive: 0.004 | inactive: -0.005 | inactive: -0.066 | inactive: 0.021 | inactive: 0.028 | inactive: 0.032 | inactive: 0.041 | inactive: 0.02 | inactive: -0.03 | inactive: 0.052 | inactive: -0.006 | inactive: -0.042 | inactive: -0.179 | inactive: 0.157 | inactive: 0.001 | inactive: 0.053
11 | RPS12 (UniProt P25398) | inactive: -0.012 | inactive: 0.018 | inactive: -0.035 | inactive: -0.004 | inactive: -0.003 | inactive: -0.023 | inactive: 0.021 | inactive: 0 | inactive: 0.004 | inactive: 0 | inactive: -0.009 | inactive: 0.006 | inactive: 0.043 | inactive: 0.015 | inactive: 0.022 | inactive: 0.009 | inactive: 0.037 | inactive: -0.023 | inactive: -0.023 | inactive: -0.056
12 | RPS11 (UniProt P62280) | inactive: -0.065 | inactive: -0.019 | inactive: -0.028 | inactive: 0.022 | inactive: -0.006 | inactive: -0.027 | inactive: -0.077 | inactive: -0.039 | inactive: 0.005 | inactive: 0.035 | inactive: -0.014 | inactive: -0.019 | inactive: -0.019 | inactive: -0.036 | inactive: 0.001 | inactive: 0.01 | inactive: 0.044 | inactive: -0.087 | inactive: -0.056 | inactive: -0.016
13 | RTF1 (UniProt Q92541) | inactive: -0.028 | inactive: 0.004 | inactive: 0.005 | inactive: 0.011 | inactive: 0.01 | inactive: 0 | inactive: 0.004 | inactive: -0.02 | inactive: 0.006 | inactive: -0.008 | inactive: -0.023 | inactive: 0.005 | inactive: -0.019 | inactive: -0.03 | inactive: 0.009 | inactive: 0.008 | inactive: 0 | inactive: -0.017 | inactive: -0.013 | inactive: 0.031
14 | RPS16 (UniProt P62249) | inactive: 0.002 | inactive: 0.006 | inactive: -0.087 | inactive: 0.01 | inactive: -0.01 | inactive: -0.011 | inactive: -0.061 | inactive: -0.033 | inactive: -0.052 | inactive: 0.04 | inactive: -0.053 | inactive: -0.017 | inactive: -0.004 | inactive: -0.047 | inactive: -0.002 | inactive: 0.053 | inactive: 0.157 | inactive: -0.073 | inactive: 0.033 | inactive: -0.001
15 | RPP21 isoform 4 (UniProt Q9H633) | inactive: 0.018 | inactive: -0.119 | inactive: -0.018 | inactive: 0.008 | inactive: 0.056 | inactive: 0.094 | inactive: -0.03 | inactive: 0.136 | inactive: -0.055 | inactive: -0.036 | inactive: -0.005 | inactive: -0.023 | inactive: -0.026 | inactive: 0.026 | inactive: 0.041 | inactive: -0.008 | inactive: -0.189 | inactive: 0.151 | inactive: -0.006 | inactive: 0.142
